# Laboratory results published in the supplement of paper PMC8728848.
# Some of the results follow.
# B1: truncCC1G-10077 (Coprinopsis cinerea) (protein)
# chain: MHHHHHHHHPLPSPGPGWVLIQNGGTGKFLCSTPSGDIGTADGPETVYDYSVQWRFIQREYTGVYHVVNRATGAYLRQIGTSMPSIGLAEENDDELKDWWMLETYDNSEIGLASIISRWTGNVLDHYGGVSVQALDNNTENSYRSWAIIPARDWLTSFSLVNGQGGLCLAAQYAREETRLSTTANVNDFHAQWVFRKPSGSSGYTIQNKYNNHYVGGTSARWELVVCCNKYFGIRNTSTQKYLAIEDGQVTFQDQDMTDRKQCWELCSGRATDTSGNDYDLIYMDDDLLEVMIPWVGDKQGDLKHYIEKRATKKPPKDKGGWQLPAAGLIKKPKFNDIRQLLQELIEQWEWDVVNEEREQIQTLVSIDEAEARRLLGRRPHPDIVAAYQRSRSSTLFRIDRQGYFNIAGDRYVNIQGQYGDDSYFHIALPVGVRFGREQIRRFLRDSLDRSTSVTITPTTCKPPSGGPDYNRDPDSDGDNSWIKWTIAVVGTSAIKHSEL
# Legend:
# Assay in all cases: glycan array binding signal (z-score within array); higher = stronger binding
# Settings in all cases: glycan notation: IUPAC condensed, linker removed
# [1] = biological target: Man(a1-3)[Man(a1-6)]Man(a1-6)[Man(a1-3)]Man
# Outline: (§1)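 The binding signal is a Z-score computed within each array. Data were drawn from 3228 arrays in the Consortium for Functional Glycomics database, restricted to those with a known protein sequence. Scores were averaged over arrays of the same protein sequence at different concentrations or buffers, and over linkers, and negative values can be taken as non-binding.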
# [2] = biological target: Man(a1-3)[Man(a1-6)]Man(a1-6)[Man(a1-3)]Man(b1-4)GlcNAc(b1-4)GlcNAc
# Outline: as §1
# [3] = biological target: Man(a1-3)[Man(a1-6)]Man(b1-4)GlcNAc(b1-4)GlcNAc
# Outline: as §1
# [4] = biological target: Man(a1-3)[Man(a1-6)]Man(b1-4)GlcNAc(b1-4)[Fuc(a1-6)]GlcNAc
# Outline: as §1
# Man(a1-6)Man = biological target: Man(a1-6)Man
# Outline: as §1
# Man(b1-4)GlcNAc = biological target: Man(b1-4)GlcNAc
# Outline: as §1
# MurNAc(b1-4)GlcNAc = biological target: MurNAc(b1-4)GlcNAc
# Outline: as §1
# Neu5Ac(a2-3)Gal = biological target: Neu5Ac(a2-3)Gal
# Outline: as §1
# [5] = biological target: Neu5Ac(a2-3)Gal(b1-3)GalNAc
# Outline: as §1
# [6] = biological target: Neu5Ac(a2-3)Gal(b1-3)GalNAc(b1-3)Gal(a1-4)Gal(b1-4)Glc
# Outline: as §1
# [7] = biological target: Neu5Ac(a2-3)Gal(b1-3)GalNAc(b1-4)Gal(b1-4)Glc
# Outline: as §1
# [8] = biological target: Neu5Ac(a2-3)Gal(b1-3)GalNAc(b1-4)[Neu5Ac(a2-3)]Gal(b1-4)Glc
# Outline: as §1
# [9] = biological target: Neu5Ac(a2-3)Gal(b1-3)GalNAc(b1-4)[Neu5Ac(a2-8)Neu5Ac(a2-3)]Gal(b1-4)Glc
# Outline: as §1
# [10] = biological target: Neu5Ac(a2-3)Gal(b1-3)GalNAc6S
# Outline: as §1
# [11] = biological target: Neu5Ac(a2-3)Gal(b1-3)GlcNAc
# Outline: as §1
# [12] = biological target: Neu5Ac(a2-3)Gal(b1-3)GlcNAc(b1-2)Man
# Outline: as §1
# [13] = biological target: Neu5Ac(a2-3)Gal(b1-3)GlcNAc(b1-2)Man(a1-3)[GlcNAc(b1-4)][Neu5Ac(a2-3)Gal(b1-3)GlcNAc(b1-2)Man(a1-6)]Man(b1-4)GlcNAc(b1-4)GlcNAc
# Outline: as §1
# [14] = biological target: Neu5Ac(a2-3)Gal(b1-3)GlcNAc(b1-2)Man(a1-3)[Neu5Ac(a2-3)Gal(b1-3)GlcNAc(b1-2)Man(a1-6)]Man(b1-4)GlcNAc(b1-4)GlcNAc
# Outline: as §1
# [15] = biological target: Neu5Ac(a2-3)Gal(b1-3)GlcNAc(b1-2)[Neu5Ac(a2-3)Gal(b1-3)GlcNAc(b1-4)]Man(a1-6)[Neu5Ac(a2-3)Gal(b1-3)GlcNAc(b1-2)Man(a1-3)]Man(b1-4)GlcNAc(b1-4)GlcNAc
# Outline: as §1
# [16] = biological target: Neu5Ac(a2-3)Gal(b1-3)GlcNAc(b1-3)Gal(b1-3)GlcNAc
# Outline: as §1
# [17] = biological target: Neu5Ac(a2-3)Gal(b1-3)GlcNAc(b1-3)Gal(b1-4)GlcNAc
# Outline: as §1
# [18] = biological target: Neu5Ac(a2-3)Gal(b1-3)GlcNAc(b1-3)GalNAc
# Outline: as §1
# [19] = biological target: Neu5Ac(a2-3)Gal(b1-3)GlcNAc(b1-6)GalNAc
# Outline: as §1
# [20] = biological target: Neu5Ac(a2-3)Gal(b1-3)GlcNAc6S
# Outline: as §1
# [21] = biological target: Neu5Ac(a2-3)Gal(b1-3)[Fuc(a1-4)]GlcNAc
# Outline: as §1
# [22] = biological target: Neu5Ac(a2-3)Gal(b1-3)[Fuc(a1-4)]GlcNAc(b1-3)Gal(b1-3)[Fuc(a1-4)]GlcNAc
# Outline: as §1
# [23] = biological target: Neu5Ac(a2-3)Gal(b1-3)[Fuc(a1-4)]GlcNAc(b1-3)Gal(b1-4)[Fuc(a1-3)]GlcNAc
# Outline: as §1
# [24] = biological target: Neu5Ac(a2-3)Gal(b1-3)[GlcNAc(b1-6)]GalNAc
# Outline: as §1
# [25] = biological target: Neu5Ac(a2-3)Gal(b1-3)[Neu5Ac(a2-6)]GalNAc
# Outline: as §1
# [26] = biological target: Neu5Ac(a2-3)Gal(b1-3)[Neu5Ac(a2-6)]GlcNAc(b1-3)[Fuc(a1-3)[Gal(b1-4)]GlcNAc(b1-6)]Gal(b1-4)Glc
# Outline: as §1
# [27] = biological target: Neu5Ac(a2-3)Gal(b1-3)]Neu5Ac(a2-3)Gal(b1-4)]GlcNAc
# Outline: as §1
# Neu5Ac(a2-3)Gal(b1-4)Glc = biological target: Neu5Ac(a2-3)Gal(b1-4)Glc
# Outline: as §1
# [28] = biological target: Neu5Ac(a2-3)Gal(b1-4)GlcNAc
# Outline: as §1
# [29] = biological target: Neu5Ac(a2-3)Gal(b1-4)GlcNAc(b1-2)Man
# Outline: as §1
# [30] = biological target: Neu5Ac(a2-3)Gal(b1-4)GlcNAc(b1-2)Man(a1-3)[GlcNAc(b1-4)][Neu5Ac(a2-3)Gal(b1-4)GlcNAc(b1-2)Man(a1-6)]Man(b1-4)GlcNAc(b1-4)GlcNAc
# Outline: as §1
# [31] = biological target: Neu5Ac(a2-3)Gal(b1-4)GlcNAc(b1-2)Man(a1-3)[Neu5Ac(a2-3)Gal(b1-4)GlcNAc(b1-2)Man(a1-6)]Man(b1-4)GlcNAc(b1-4)GlcNAc
# Outline: as §1
# [32] = biological target: Neu5Ac(a2-3)Gal(b1-4)GlcNAc(b1-2)Man(a1-3)[Neu5Ac(a2-3)Gal(b1-4)GlcNAc(b1-2)Man(a1-6)]Man(b1-4)GlcNAc(b1-4)[Fuc(a1-6)]GlcNAc
# Outline: as §1
# [33] = biological target: Neu5Ac(a2-3)Gal(b1-4)GlcNAc(b1-2)Man(a1-3)[Neu5Ac(a2-6)Gal(b1-4)GlcNAc(b1-2)Man(a1-6)]Man(b1-4)GlcNAc(b1-4)GlcNAc
# Outline: as §1
binder,measurement,setting,value
B1,glycan array binding signal (z-score),[1],0.384
same,glycan array binding signal (z-score),[2],1.81
same,glycan array binding signal (z-score),[3],-0.43
same,glycan array binding signal (z-score),[4],-0.725
same,glycan array binding signal (z-score),Man(a1-6)Man,2.68
same,glycan array binding signal (z-score),Man(b1-4)GlcNAc,0.574
same,glycan array binding signal (z-score),MurNAc(b1-4)GlcNAc,0.242
same,glycan array binding signal (z-score),Neu5Ac(a2-3)Gal,-0.757
same,glycan array binding signal (z-score),[5],1.15
same,glycan array binding signal (z-score),[6],0.477
same,glycan array binding signal (z-score),[7],0.287
same,glycan array binding signal (z-score),[8],-0.557
same,glycan array binding signal (z-score),[9],0.156
same,glycan array binding signal (z-score),[10],-0.721
same,glycan array binding signal (z-score),[11],-0.093
same,glycan array binding signal (z-score),[12],-0.385
same,glycan array binding signal (z-score),[13],-0.397
same,glycan array binding signal (z-score),[14],1.47
same,glycan array binding signal (z-score),[15],1.06
same,glycan array binding signal (z-score),[16],0.721
same,glycan array binding signal (z-score),[17],-0.343
same,glycan array binding signal (z-score),[18],-0.61
same,glycan array binding signal (z-score),[19],-0.615
same,glycan array binding signal (z-score),[20],-0.589
same,glycan array binding signal (z-score),[21],-0.52
same,glycan array binding signal (z-score),[22],0.498
same,glycan array binding signal (z-score),[23],0.323
same,glycan array binding signal (z-score),[24],-0.439
same,glycan array binding signal (z-score),[25],0.298
same,glycan array binding signal (z-score),[26],-0.327
same,glycan array binding signal (z-score),[27],0.059
same,glycan array binding signal (z-score),Neu5Ac(a2-3)Gal(b1-4)Glc,0.72
same,glycan array binding signal (z-score),[28],-0.796
same,glycan array binding signal (z-score),[29],2.91
same,glycan array binding signal (z-score),[30],-0.804
same,glycan array binding signal (z-score),[31],0.575
same,glycan array binding signal (z-score),[32],0.679
same,glycan array binding signal (z-score),[33],-1.19

# Pulled one by one from above, 3 records:
binder,measurement,setting,value
B1,glycan array binding signal (z-score),[1],0.384
same,glycan array binding signal (z-score),[23],0.323
same,glycan array binding signal (z-score),[30],-0.804
